This assay in a line: qHTS Assay for Modulators of Lamin A Splicing. To be noted: HeLa LMNA splicing GFP/RFP minigene ratio, 48 h. Put shortly: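 S3 HeLa cells stably expressing lamin A-EGFP splicing minigene plus DsRed2, 600 cells/well, 48 h compound exposure at 37C. Laser-scanning cytometry; analysed as GFP (500-530 nm)/RFP (575-640 nm) total intensity ratio; 0.5% DMSO vehicle.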
(Quantitative high-throughput screening tests each substance at several concentrations.)

Where [1] appears, read: measured here: GFP splicing reporter channel.
Setting [2] is: measured here: RFP viability control channel.

Where “and” joins values, the source holds several entries; their conditions need not be identical. Equal entries are not always repeated. Some of the results follow. These are further read-outs of the screen, such as a control signal, another cell line or another target. No call is given for them. Most of these compounds were active or inconclusive in the main read-out, so they are no random draw. The note in brackets gives the kind of curve behind each potency; many fits are weak.

`N#CCCn1cc(C(=O)Nc2ccc(F)cc2)c(-c2ccc([N+](=O)[O-])cc2)n1`: under setting [1], the AC50 is 35.5 µM [falling, single point].
Regarding `CCOc1ccccc1NC(=O)NCc1ccc2c(c1)CCN2C(=O)c1ccccc1`, under setting [2], the AC50 was 8.91 µM [rising, partial curve].
Consider `CN(N=O)c1cc(O)ccc1O`, for which the AC50 under setting [2] is 0.00447 µM [falling, full curve, poor fit].
Same read-out and setting: the result for `O=c1oc2ccccc2n1CSC1=NCCS1` reads 8.91 µM [rising, partial curve, poor fit].
Take `C[C@H]1CCC[C@H](O)CCCCCc2cc(O)cc(O)c2C(=O)O1`: the AC50 under setting [1] is 35.5 µM [falling, single point]; the AC50 under setting [2] is 79.4 nM [falling, full curve, poor fit] and 3.55 µM [rising, full curve].
Turning to `NC(Cc1cc(O)c(O)cc1O)C(=O)O` (stereo unspecified), the AC50 by setting is: under setting [1], 1.58 µM [rising, partial curve, poor fit]; under setting [2], 25.1 µM [rising, single point].
Turning to `c1ccc(-c2nnc(SCc3nc4ccccc4[nH]3)o2)cc1`, the AC50 runs as follows: under setting [1], 25.1 µM [rising, partial curve]; under setting [2], 25.1 µM [rising, partial curve].
For the molecule `CC1(C)OC(c2ccccc2)=C/C(=C/C=C2C(=O)NC(=S)NC2=O)O1`, the AC50 under setting [2] is 10 µM [rising, partial curve].
With `Cn1ncnc2c(=O)n(C)c(=O)nc1-2`, the AC50 by setting is: under setting [1], 0.708 µM [falling, full curve]; under setting [2], 5.01 µM [falling, full curve].
On to `CN(C)C1(c2nnnn2CCOC(=O)Nc2ccc(Cl)cc2)CCCCC1`, for which the AC50 reads like this: under setting [1], 25.1 µM [rising, single point]; under setting [2], 20 µM [rising, single point].
Regarding `O=C(NCCc1ccccc1)c1ccc(CSc2nc3cccnc3n2Cc2ccc(F)cc2)cc1`, the AC50 is 5.01 µM [falling, partial curve] under setting [1] and 5.01 µM [falling, partial curve] under setting [2].
As for `CC(C)N1CC=C(c2c[nH]c3ccccc23)CC1`, the AC50 is 3.16 µM [rising, full curve] under setting [1] and 5.62 µM [rising, full curve] under setting [2].
On to `CCCN(CCC)C1CCc2ccc(O)cc2C1` (stereo unspecified), for which, under setting [2], the AC50 is 0.178 µM [falling, full curve, poor fit].
Turning to `CCN(CC)c1ccc(CNCCc2ccccc2F)cc1`, the AC50 under setting [1] was 0.0355 µM [falling, full curve, poor fit].
In the case of `CCOP(=O)(OCC)c1nc(-c2ccc(F)cc2)oc1NCc1ccccc1`, the AC50 under setting [2] is 1.12 µM [falling, full curve, poor fit].
In the case of `C[C@@H](Cc1ccccc1)NCCC(c1ccccc1)c1ccccc1`, under setting [1], the AC50 is 3.55 µM [falling, partial curve, poor fit].
As to `CCn1cc(C(=O)O)c(=O)c2ccc(C)nc21`, the AC50 runs as follows: under setting [1], 0.158 µM [falling, full curve, poor fit]; under setting [2], 6.31 µM [falling, single point] and 126 nM [falling, full curve, poor fit].
In the case of `C/C(=C\c1ccc(N(C)C)cc1)[N+](=O)[O-]`, the AC50 is 7.94 µM [falling, partial curve] under setting [1] and 10 µM [falling, partial curve] under setting [2].
Regarding `OCC1OC(n2cnc3c(Cl)ncnc32)C(O)C1O` (stereo unspecified), the AC50 is, setting by setting: under setting [1], 7.08 µM [rising, full curve, poor fit]; under setting [2], 7.08 µM [rising, full curve, poor fit].
For the molecule `CC(C)CCON=O`, the AC50 was 0.0126 µM [falling, full curve, poor fit] under setting [1] and 2.51 µM [rising, partial curve] under setting [2].
Take `COc1ccc(NC(=O)CCc2nc(C3=CCN(Cc4cccc(Cl)c4)CC3)no2)c(OC)c1`: the AC50 under setting [2] was 6.31 µM [falling, partial curve, poor fit].
`CCCC(=O)OC(C(Cl)(Cl)Cl)P(=O)(OC)OC` (stereo unspecified): the AC50 under setting [1] is 31.6 µM [rising, single point] and the AC50 under setting [2] was 35.5 µM [rising, partial curve, poor fit].
Turning to `Cc1ccccc1N1C(=O)NC(=O)/C(=C\c2ccc3c(c2)CCCN3Cc2ccccc2)C1=O`, the AC50 under setting [2] is 11.2 µM [rising, partial curve, poor fit].
The same measure, in the same setting: the result for `Cc1cc(OCCCC(=O)NCc2cccs2)ccc1Cl` reads 12.6 µM [rising, single point]; that for `Cc1cccc(C)c1OCc1n[nH]c(=S)n1N`, 6.31 µM [falling, partial curve, poor fit].
As to `COc1ccc(C2NCCc3[nH]cnc32)cc1` (stereo unspecified), the AC50 under setting [1] was 22.4 µM [rising, partial curve, poor fit].
`O=c1oc(Cl)c(Cl)c2ccccc12`: the AC50 under setting [1] was 15.8 µM [falling, partial curve] and the AC50 under setting [2] is 12.6 µM [falling, partial curve].
Regarding `O=P(Oc1ccccc1)(Oc1ccccc1)C(Nc1ccccc1)c1ccccc1` (stereo unspecified), under setting [2], the AC50 was 15.8 µM [rising, single point].
In the case of `Oc1cc(Cl)ccc1Oc1ccc(Cl)cc1Cl`, under setting [1], the AC50 is 1.26 µM [falling, partial curve, poor fit].
On to `Brc1c(Br)c(Br)c2n[nH]nc2c1Br`, for which the AC50 by setting is: under setting [1], 22.4 µM [falling, partial curve, poor fit]; under setting [2], 12.6 µM [falling, partial curve].
With `O=C(Nc1nc2c(s1)CCCC2)C1CCCN1C(=O)c1cccs1` (stereo unspecified), the AC50 under setting [2] was 22.4 µM [falling, single point].
Still for that read-out and setting: the value for `CCCN1CCCC2Cc3[nH]ncc3CC21` (stereo unspecified) was 0.00178 µM [falling, full curve, poor fit].
Regarding `Cc1ncc([N+](=O)[O-])n1CCOc1nonc1N`, the AC50 is, setting by setting: under setting [1], 0.562 µM [falling, partial curve, poor fit]; under setting [2], 0.562 µM [falling, full curve, poor fit].
As for `C[C@]12N[C@H](Cc3ccccc31)c1ccccc12`, under setting [1], the AC50 is 0.1 µM [falling, full curve].
Regarding `CCCCCCn1c(N)c(C(=O)NCCN2CCOCC2)c2nc3ccccc3nc21`, the AC50 by setting is: under setting [1], 25.1 µM [falling, single point]; under setting [2], 22.4 µM [falling, partial curve].
Consider `CC(C)C(=O)c1cn(Cc2ccc(C#N)cc2)c2ccccc12`, for which the AC50 under setting [2] is 35.5 µM [rising, single point].
As to `CCOP(=O)(/C(C#N)=C(\C)O)c1ccccc1` (stereo unspecified), the AC50 was 0.00708 µM [falling, full curve, poor fit] under setting [1] and 0.01 µM [falling, full curve, poor fit] under setting [2].
For `OC(CCNCCc1c[nH]c2ccccc12)C(F)(F)Cl` (stereo unspecified), the AC50 under setting [1] was 12.6 µM [falling, partial curve, poor fit].
On the same count and under the same terms, the result for `CCOc1ccc(C2SCC(=O)Nc3c2c(=O)[nH]n3C2CCCCCC2)cc1` (stereo unspecified) reads 5.62 µM [rising, single point]; that for `COc1ccc(-n2c(/C=C/c3cccc(F)c3)nc3ccccc3c2=O)cc1Cl`, 2.82 µM [falling, partial curve, poor fit].
As for `CCN1CC=C(c2c[nH]c3ccccc23)CC1`, the AC50 under setting [2] was 17.8 µM [rising, partial curve].
For `CCc1nnc(NS(=O)(=O)c2ccc(N=Cc3c(O)n(-c4ccccc4)c(=O)[nH]c3=O)cc2)s1`, the AC50 under setting [2] was 0.0282 µM [falling, full curve, poor fit].
Turning to `CC(C)N1C(=O)/C(=C/C=C/c2ccco2)C(=O)N(Cc2ccco2)C1=O`, the AC50 is 35.5 µM [falling, single point] under setting [1] and 25.1 µM [falling, single point] under setting [2].
With `O=[N+]([O-])c1ccc(C2C3C(c4ccccc4)=NC4(CCCC4)N32)cc1` (stereo unspecified), the AC50 under setting [2] is 0.02 µM [rising, full curve, poor fit].
Take `C=CCC1(C(C)CCC)C(=O)N=C(S)NC1=O` (stereo unspecified): the AC50 under setting [1] was 0.0126 µM [falling, full curve, poor fit].
For `O=C(COc1ccccc1)N1CCN(C/C=C/c2ccccc2)CC1`, the AC50 is 11.2 µM [rising, partial curve, poor fit] under setting [1] and 14.1 µM [rising, single point] under setting [2].
Turning to `Clc1ccc(C2NCCc3[nH]cnc32)cc1` (stereo unspecified), the AC50 by setting is: under setting [1], 0.00447 µM [falling, full curve, poor fit]; under setting [2], 0.00891 µM [falling, full curve].
For `O=Cc1cn(Cc2ccccc2[N+](=O)[O-])c2ccccc12`, the AC50 under setting [1] is 11.2 µM [rising, partial curve] and the AC50 under setting [2] is 12.6 µM [rising, partial curve, poor fit].
`Cn1c(=O)oc2cc(S(=O)(=O)N3CCCC(C(=O)Nc4ccccn4)C3)ccc21` (stereo unspecified): under setting [2], the AC50 is 14.1 µM [rising, single point].
The same measure, in the same setting: the result for `CC(=O)OC1(Cc2ccccc2)CN2CCC1c1ccccc12` (stereo unspecified) reads 35.5 µM [rising, single point].

For orientation: AC50 means the midpoint of the concentration-response curve, whichever way the signal moves.

The values are drawn from PubChem BioAssay AID1487 (National Center for Advancing Translational Sciences (NCATS), 2009).
